PubChem BioAssay AID204 (DTP/NCI, 2004)
The list does not hold the whole screen: it covers a few groups of compounds. Other doses and runs of a compound may be missing. T/C is the treated group as % of the vehicle group. Where survival is the endpoint, the PubChem record calls one and a half times the control and up active, and a quarter to a half above the control has no call in these data; cut-offs in other NCI protocols can differ. Some entries show no survivor count and are marked so; the dose need not have been tolerated. Schedules are NCI's codes, taken here to give the interval after Q, in days (D) or hours (H), and the number of doses after X. Some doses were run more than once; their values stand side by side, smallest first.

System: BDF1 mice, P288 methotrexate-resistant leukemia, survival T/C
Test: NCI In Vivo Anticancer Drug Screen. Data for tumor model P288 Lymphocytic Leukemia resistant to methotrexate; NSC 740 (intraperitoneal) in B6D2F1 (BDF1) mice
Details: T/C endpoint: median survival time, schedule: Q01DX010 (ip), vehicle: saline, higher T/C = longer survival
Experimental: The antitumor activity of compounds was measured in mice bearing transplantable tumors. Survival or tumor size were measured and the results are expressed as the measurement made in the treated group (T) divided by the measurement made in the vehicle treated control group (C). The tumor model used in this assay is P288 Lymphocytic Leukemia resistant to methotrexate; NSC 740 (intraperitoneal) in B6D2F1 (BDF1) mice

Structure (SMILES)	T/C (dose: 0.63 mg/kg/injection)	T/C (dose: 1.25 mg/kg/injection)	T/C (dose: 2.5 mg/kg/injection)	T/C (dose: 5.0 mg/kg/injection)	T/C (dose: 0.5 mg/kg/injection)	T/C (dose: 1.0 mg/kg/injection)	T/C (dose: 2.0 mg/kg/injection)	T/C (dose: 4.0 mg/kg/injection)	also measured
NC1CCCCC1.NP(=O)(O)N(CCCl)CCCl									T/C (dose: 15.6 mg/kg/injection): 140 % of control [survivor count not shown]; T/C (dose: 31.3 mg/kg/injection): 172 % of control [survivor count not shown]; T/C (dose: 62.5 mg/kg/injection): 118 % of control [survivor count not shown]
O=C(O)CN(CCCl)CCCl	121 [survivor count not shown] and 127 % of control [survivor count not shown]	122 [survivor count not shown] and 136 % of control [survivor count not shown]	136 [survivor count not shown] and 145 % of control [survivor count not shown]	181 % of control [survivor count not shown]					
NC(Cc1cccc(N(CCCl)CCCl)c1)C(=O)O (centres undefined)	100 [survivor count not shown] and 115 % of control [survivor count not shown]	119 [survivor count not shown] and 145 % of control [survivor count not shown]	111 [survivor count not shown] and 159 % of control [survivor count not shown]	109 % of control [survivor count not shown]					
NC(Cc1ccccc1N(CCCl)CCCl)C(=O)O (centres undefined)					140 [survivor count not shown] and 145 % of control [survivor count not shown]	133 [survivor count not shown] and 172 % of control [survivor count not shown]	145 [survivor count not shown] and 181 % of control [survivor count not shown]	127 % of control [survivor count not shown]	T/C (dose: 0.25 mg/kg/injection): 104 % of control [survivor count not shown]
ClCCN(CCCl)Cc1nc2ccccc2[nH]1		95 % of control [survivor count not shown]	95 [survivor count not shown] and 104 % of control [survivor count not shown]	112 [survivor count not shown] and 122 % of control [survivor count not shown]					T/C (dose: 10.0 mg/kg/injection): 133 [survivor count not shown] and 140 % of control [survivor count not shown]
CC(C(=O)O)N(CCCl)CCCl (centres undefined)					100 [survivor count not shown] and 121 % of control [survivor count not shown]	127 [survivor count not shown] and 136 % of control [survivor count not shown]	136 [survivor count not shown] and 147 % of control [survivor count not shown]	100 [survivor count not shown] and 163 % of control [survivor count not shown]	
